This assay in a line: qHTS Assay for Modulators of Lamin A Splicing. As to conditions: HeLa LMNA splicing GFP/RFP minigene ratio, 48 h. A digest of the protocol:
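S3 HeLa stable clones carrying a lamin A-EGFP splicing minigene plus DsRed2 were seeded at 600 cells/well in Opti-MEM with 2% FBS, pin-dosed and incubated 48 h at 37°C. Acumen cytometry (488 nm) gave the GFP/RFP total-intensity ratio.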
On the technique in general: Quantitative high-throughput screening tests each substance at several concentrations.

The mark [1] stands for this setting: measured here: GFP splicing reporter channel.
Setting [2] is: measured here: RFP viability control channel.

Here are results for 36 molecules from PubChem BioAssay AID1487 (National Center for Advancing Translational Sciences (NCATS), 2009).

SMILES strings stand for the structures. This is one part of the list. Shown are side measurements of this screen, not its main read-out; they come without a call. The list favours compounds with an active or inconclusive main result. Potencies come from curve fits of mixed quality, noted in brackets.

One may read the AC50 as the concentration at which the activity in the assay is half-maximal. In the case of `CC(C)c1ccc(C2=CC(c3ccc(C(C)C)cc3)n3nnnc3N2)cc1` (stereo unspecified), the concentration at half-maximal activity (AC50) under setting [1] is 14.1 µM [rising, partial curve] and the half-maximal activity concentration (AC50) under setting [2] is 11.2 µM [rising, partial curve, poor fit].

With `Cc1ccccc1NC(=O)c1ccc(CN(c2ccccc2)S(=O)(=O)c2ccccc2)cc1`, the AC50 under setting [1] was 7.94 µM [rising, partial curve].

As to `NC(N)=Nc1nc2cc([N+](=O)[O-])ccc2o1`, the concentration at half-maximal activity (AC50) under setting [1] is 11.2 µM [falling, partial curve, poor fit].

As for `CN(c1cccc(NC(=O)c2ccc(N(C)S(=O)(=O)c3ccccc3)cc2)c1)S(C)(=O)=O`, the half-maximal activity concentration (AC50) by setting is: under setting [1], 0.0141 µM [rising, full curve, poor fit]; under setting [2], 25.1 µM [rising, partial curve, poor fit].

`O/N=C1\CC/C(=N\O)c2nn(-c3ccc(Cl)cc3Cl)nc21`: the AC50 under setting [2] is 22.4 µM [rising, partial curve, poor fit].

On to `O=C(Nc1cccnc1)c1ccc(-c2ccccc2)cc1`, for which, under setting [2], the AC50 is 7.94 µM [rising, partial curve, poor fit].

Turning to `COc1ccc(CN(Cc2cc3cc4c(cc3[nH]c2=O)OCO4)C(=O)NC2CCCCC2)cc1`, under setting [2], the AC50 was 14.1 µM [rising, single point].

On to `Cc1onc(-c2ccccc2Cl)c1C(=O)Nc1cccc2cccnc12`, for which the AC50 under setting [2] is 6.31 µM [rising, full curve].

Regarding `CCOC(=O)C(NC(=O)CCl)(Nc1sc(C)c(CC)c1C#N)C(F)(F)F` (stereo unspecified), the AC50 under setting [1] was 35.5 µM [rising, single point].

In the case of `Cc1ccccc1OCc1nc2ccccc2c(=O)n1/N=C/c1ccco1`, the AC50 under setting [2] is 11.2 µM [rising, single point].

Take `CCn1cc(CN2CCN(Cc3cccc(OC)c3)C(CCO)C2)c(C)n1` (stereo unspecified): the AC50 under setting [1] was 14.1 µM [falling, partial curve].

With `Cn1nc(-c2ccc(NCCO)c([N+](=O)[O-])c2)c2ccccc2c1=O`, the AC50 under setting [2] was 7.94 µM [rising, partial curve].

Take `Cc1cc(N2C(=O)C3C4CC(C(Br)C4Br)C3C2=O)no1` (stereo unspecified): the AC50 under setting [1] was 0.01 µM [falling, full curve, poor fit].

Take `S=C(NNc1cccc(Cl)c1)NC1CCCCC1`: the concentration at half-maximal activity (AC50) under setting [2] was 31.6 µM [rising, single point].

On to `COc1ccc(C(=O)NC(=S)Nc2ccc(CN3CCCCC3)cc2)cc1Cl`, for which, under setting [2], the concentration at half-maximal activity (AC50) was 1.12 µM [falling, full curve, poor fit].

As for `CCOC(=O)c1c(NC(=O)Cc2cccs2)sc2c1CCCC2`, the AC50 under setting [2] is 8.91 µM [rising, single point].

For `CCC(=O)Nc1ccccc1C(=O)OCC(=O)c1ccccc1`, under setting [2], the AC50 is 5.62 µM [falling, single point].

Regarding `Cc1ccc(/C=C/c2onc(C)c2S(=O)(=O)N2CCC(C(=O)N3CCC(N(C)C(C)C)CC3)CC2)cc1`, the AC50 under setting [1] was 12.6 µM [falling, partial curve] and the AC50 under setting [2] was 28.2 µM [falling, partial curve].

With `CC(C)(C)c1nc2c(C#N)c(-c3ccc(Cl)cc3)ccn2n1`, the AC50 under setting [2] is 31.6 µM [rising, single point].

As for `COc1ccc(Nc2oc(-c3ccc(Cl)cc3)nc2C#N)cc1`, the AC50 under setting [2] is 0.0316 µM [falling, single point].

Take `Cc1cccc(C)c1NS(=O)(=O)c1ccc(NC(=O)c2ccc(Cl)c([N+](=O)[O-])c2)cc1`: the half-maximal activity concentration (AC50) is, setting by setting: under setting [1], 25.1 µM [falling, single point]; under setting [2], 25.1 µM [falling, single point].

Turning to `CC(=O)NC(=S)NNC(=O)c1ccc(Br)cc1`, the half-maximal activity concentration (AC50) under setting [1] is 1.78 µM [falling, partial curve, poor fit] and the concentration at half-maximal activity (AC50) under setting [2] is 31.6 µM [rising, single point].

With `CCN1CCN(c2cc(N3CCc4ccccc4C3)c(F)cc2[N+](=O)[O-])CC1`, under setting [2], the AC50 is 17.8 µM [rising, single point].

`O=C1CSC(c2ccccc2[N+](=O)[O-])N1c1ccccc1` (stereo unspecified): the AC50 under setting [1] was 5.01 µM [rising, single point].

For `NCCNc1ccc([N+](=O)[O-])c(Sc2nc3ccccc3[nH]2)c1`, the concentration at half-maximal activity (AC50) under setting [2] was 7.08 µM [rising, partial curve].

In the case of `Cc1ccc2c(c1)cc(CN(Cc1ccco1)C(=O)COc1ccccc1)c1nnnn12`, the AC50 under setting [1] is 15.8 µM [rising, single point] and the concentration at half-maximal activity (AC50) under setting [2] was 35.5 µM [rising, single point].

Take `Cc1ccc(C)c(CSc2ccc3nnc(-c4ccccn4)n3n2)c1`: under setting [1], the AC50 was 0.0224 µM [falling, full curve, poor fit].

Take `CCOC(=O)c1c(C)[nH]c(C)c1C(=O)CSc1nc2ccccc2c(=O)n1-c1ccc(F)cc1`: the half-maximal activity concentration (AC50) under setting [2] was 3.16 µM [rising, full curve, poor fit].

In the case of `COc1cccc(C(CC(=O)Nc2cccc3ccccc23)NC(=O)c2ccccc2)c1` (stereo unspecified), the concentration at half-maximal activity (AC50) reads like this: under setting [1], 22.4 µM [falling, single point]; under setting [2], 35.5 µM [falling, single point].

On to `COc1cccc(-c2cc(C(=O)Nc3cc(Cl)ccc3O)on2)c1`, for which the half-maximal activity concentration (AC50) under setting [1] was 25.1 µM [falling, partial curve, poor fit] and the AC50 under setting [2] is 0.02 µM [falling, full curve, poor fit].

Consider `CCCNC(=O)c1cccc(Cn2nc(C)c(Br)c2C)c1`, for which the AC50 under setting [2] is 31.6 µM [rising, single point].

For `CCOC(=O)Cn1c(=O)c2c(nc(Br)n2Cc2ccccc2)n(C)c1=O`, under setting [2], the AC50 is 35.5 µM [rising, single point].

Consider `CSc1ccc(C(=O)/C=C/c2ccc(N)cc2)cc1`, for which the half-maximal activity concentration (AC50) under setting [2] was 14.1 µM [rising, single point].

`O=[N+]([O-])c1cc(C(F)(F)F)ccc1Oc1cccnc1[N+](=O)[O-]`: the AC50 under setting [1] was 11.2 µM [rising, single point].

Consider `CC(=O)OCC1=C(C(=O)O)N2C(=O)[C@@H](NC(=O)CSc3ccncc3)[C@@H]2SC1`, for which the AC50 runs as follows: under setting [1], 0.00282 µM [falling, full curve, poor fit]; under setting [2], 0.00631 µM [falling, full curve, poor fit].

As to `COc1ccc(-n2cnnc2SCC(=O)c2ccc(S(=O)(=O)N3CCOCC3)cc2)cc1`, the concentration at half-maximal activity (AC50) by setting is: under setting [1], 17.8 µM [rising, single point]; under setting [2], 15.8 µM [rising, single point].
